Source: PubChem BioAssay AID1259276 (Sanger Institute, 2017)

Test: 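Kinase knock-downs that reduce colorectal cancer cell viability alone or with anchor drugs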 (primary screen)
System: human C2BBe1 colorectal cancer cells
Reagent: siRNA pool against human genes
Conditions: DMSO vehicle, or one anchor drug: BYL719 at 1 µM, cetuximab at 5 µg/ml, or trametinib at 10 nM; exposure length not stated
Measured: 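Cell viability as a fraction of non-targeting control wells, mean of replicates, also as a control-based robust z-score, plus a synergy score for each anchor drug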
Direction: viability robust z-score, siRNA alone and viability vs control, siRNA alone: higher = more viable cells after knock-down
Rule for the call: 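a siRNA pool tested without drug is essential if its viability robust z-score falls under -3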
Calls: active = essential (siRNA alone); inactive = no change (siRNA alone)
This is a random part of 794 reagents tested. In the full data, 24 (3%) are marked active. 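Calls come only from the siRNA-alone arm; drug synergy scores do not affect them.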 No viability above 1 is reported: the scale is capped. Not all columns of the deposit are shown. No sequences are given here. The record does not give: the amount of reagent, the time to read-out.

For FGR, the values are viability robust z-score, siRNA alone 0.472; viability vs control, siRNA alone 1; inactive.
For CAD, the values are viability robust z-score, siRNA alone 0.472; viability vs control, siRNA alone 1; inactive.
NTRK2 showed viability robust z-score, siRNA alone -0.262; viability vs control, siRNA alone 0.954; inactive.
For TRIB2, the values are viability robust z-score, siRNA alone 0.472; viability vs control, siRNA alone 1; inactive.
After knock-down of CTNNB1, the record shows viability robust z-score, siRNA alone -3.16; viability vs control, siRNA alone 0.771; active.
With knock-down of CDK11B, the record shows viability robust z-score, siRNA alone 0.472; viability vs control, siRNA alone 1; inactive.
STRADA gave viability robust z-score, siRNA alone 0.472; viability vs control, siRNA alone 1; inactive.
After knock-down of CDKN1A, the record shows viability robust z-score, siRNA alone 0.472; viability vs control, siRNA alone 1; inactive.
For MYLK2 the deposit lists viability robust z-score, siRNA alone -1.16; viability vs control, siRNA alone 0.897; inactive.
After knock-down of MAP3K10, the screen gave viability robust z-score, siRNA alone 0.472; viability vs control, siRNA alone 1; inactive.
For SGK3, the entry reads viability robust z-score, siRNA alone 0.472; viability vs control, siRNA alone 1; inactive.
After knock-down of BLK, the screen gave viability robust z-score, siRNA alone 0.472; viability vs control, siRNA alone 1; inactive.
